Experimental data reported in publication doi:10.1101/739631.
These are yes or no findings as the source states them, for the method shown. For some of these results: Binding seen in cells or lysates may run through a third protein. Some entries that bind do so weakly or less than the wild type. For some of these results: Tags and fused reporters may be left off the sequences shown.

The chains behind the UniProt entries cited, without tags or fusion partners.
UniProt Q921J2: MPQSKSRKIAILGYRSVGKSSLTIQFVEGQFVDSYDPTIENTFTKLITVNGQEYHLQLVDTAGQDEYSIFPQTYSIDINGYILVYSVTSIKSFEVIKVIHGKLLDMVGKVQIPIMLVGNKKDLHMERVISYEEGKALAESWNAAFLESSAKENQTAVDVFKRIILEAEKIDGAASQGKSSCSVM
UniProt P42859: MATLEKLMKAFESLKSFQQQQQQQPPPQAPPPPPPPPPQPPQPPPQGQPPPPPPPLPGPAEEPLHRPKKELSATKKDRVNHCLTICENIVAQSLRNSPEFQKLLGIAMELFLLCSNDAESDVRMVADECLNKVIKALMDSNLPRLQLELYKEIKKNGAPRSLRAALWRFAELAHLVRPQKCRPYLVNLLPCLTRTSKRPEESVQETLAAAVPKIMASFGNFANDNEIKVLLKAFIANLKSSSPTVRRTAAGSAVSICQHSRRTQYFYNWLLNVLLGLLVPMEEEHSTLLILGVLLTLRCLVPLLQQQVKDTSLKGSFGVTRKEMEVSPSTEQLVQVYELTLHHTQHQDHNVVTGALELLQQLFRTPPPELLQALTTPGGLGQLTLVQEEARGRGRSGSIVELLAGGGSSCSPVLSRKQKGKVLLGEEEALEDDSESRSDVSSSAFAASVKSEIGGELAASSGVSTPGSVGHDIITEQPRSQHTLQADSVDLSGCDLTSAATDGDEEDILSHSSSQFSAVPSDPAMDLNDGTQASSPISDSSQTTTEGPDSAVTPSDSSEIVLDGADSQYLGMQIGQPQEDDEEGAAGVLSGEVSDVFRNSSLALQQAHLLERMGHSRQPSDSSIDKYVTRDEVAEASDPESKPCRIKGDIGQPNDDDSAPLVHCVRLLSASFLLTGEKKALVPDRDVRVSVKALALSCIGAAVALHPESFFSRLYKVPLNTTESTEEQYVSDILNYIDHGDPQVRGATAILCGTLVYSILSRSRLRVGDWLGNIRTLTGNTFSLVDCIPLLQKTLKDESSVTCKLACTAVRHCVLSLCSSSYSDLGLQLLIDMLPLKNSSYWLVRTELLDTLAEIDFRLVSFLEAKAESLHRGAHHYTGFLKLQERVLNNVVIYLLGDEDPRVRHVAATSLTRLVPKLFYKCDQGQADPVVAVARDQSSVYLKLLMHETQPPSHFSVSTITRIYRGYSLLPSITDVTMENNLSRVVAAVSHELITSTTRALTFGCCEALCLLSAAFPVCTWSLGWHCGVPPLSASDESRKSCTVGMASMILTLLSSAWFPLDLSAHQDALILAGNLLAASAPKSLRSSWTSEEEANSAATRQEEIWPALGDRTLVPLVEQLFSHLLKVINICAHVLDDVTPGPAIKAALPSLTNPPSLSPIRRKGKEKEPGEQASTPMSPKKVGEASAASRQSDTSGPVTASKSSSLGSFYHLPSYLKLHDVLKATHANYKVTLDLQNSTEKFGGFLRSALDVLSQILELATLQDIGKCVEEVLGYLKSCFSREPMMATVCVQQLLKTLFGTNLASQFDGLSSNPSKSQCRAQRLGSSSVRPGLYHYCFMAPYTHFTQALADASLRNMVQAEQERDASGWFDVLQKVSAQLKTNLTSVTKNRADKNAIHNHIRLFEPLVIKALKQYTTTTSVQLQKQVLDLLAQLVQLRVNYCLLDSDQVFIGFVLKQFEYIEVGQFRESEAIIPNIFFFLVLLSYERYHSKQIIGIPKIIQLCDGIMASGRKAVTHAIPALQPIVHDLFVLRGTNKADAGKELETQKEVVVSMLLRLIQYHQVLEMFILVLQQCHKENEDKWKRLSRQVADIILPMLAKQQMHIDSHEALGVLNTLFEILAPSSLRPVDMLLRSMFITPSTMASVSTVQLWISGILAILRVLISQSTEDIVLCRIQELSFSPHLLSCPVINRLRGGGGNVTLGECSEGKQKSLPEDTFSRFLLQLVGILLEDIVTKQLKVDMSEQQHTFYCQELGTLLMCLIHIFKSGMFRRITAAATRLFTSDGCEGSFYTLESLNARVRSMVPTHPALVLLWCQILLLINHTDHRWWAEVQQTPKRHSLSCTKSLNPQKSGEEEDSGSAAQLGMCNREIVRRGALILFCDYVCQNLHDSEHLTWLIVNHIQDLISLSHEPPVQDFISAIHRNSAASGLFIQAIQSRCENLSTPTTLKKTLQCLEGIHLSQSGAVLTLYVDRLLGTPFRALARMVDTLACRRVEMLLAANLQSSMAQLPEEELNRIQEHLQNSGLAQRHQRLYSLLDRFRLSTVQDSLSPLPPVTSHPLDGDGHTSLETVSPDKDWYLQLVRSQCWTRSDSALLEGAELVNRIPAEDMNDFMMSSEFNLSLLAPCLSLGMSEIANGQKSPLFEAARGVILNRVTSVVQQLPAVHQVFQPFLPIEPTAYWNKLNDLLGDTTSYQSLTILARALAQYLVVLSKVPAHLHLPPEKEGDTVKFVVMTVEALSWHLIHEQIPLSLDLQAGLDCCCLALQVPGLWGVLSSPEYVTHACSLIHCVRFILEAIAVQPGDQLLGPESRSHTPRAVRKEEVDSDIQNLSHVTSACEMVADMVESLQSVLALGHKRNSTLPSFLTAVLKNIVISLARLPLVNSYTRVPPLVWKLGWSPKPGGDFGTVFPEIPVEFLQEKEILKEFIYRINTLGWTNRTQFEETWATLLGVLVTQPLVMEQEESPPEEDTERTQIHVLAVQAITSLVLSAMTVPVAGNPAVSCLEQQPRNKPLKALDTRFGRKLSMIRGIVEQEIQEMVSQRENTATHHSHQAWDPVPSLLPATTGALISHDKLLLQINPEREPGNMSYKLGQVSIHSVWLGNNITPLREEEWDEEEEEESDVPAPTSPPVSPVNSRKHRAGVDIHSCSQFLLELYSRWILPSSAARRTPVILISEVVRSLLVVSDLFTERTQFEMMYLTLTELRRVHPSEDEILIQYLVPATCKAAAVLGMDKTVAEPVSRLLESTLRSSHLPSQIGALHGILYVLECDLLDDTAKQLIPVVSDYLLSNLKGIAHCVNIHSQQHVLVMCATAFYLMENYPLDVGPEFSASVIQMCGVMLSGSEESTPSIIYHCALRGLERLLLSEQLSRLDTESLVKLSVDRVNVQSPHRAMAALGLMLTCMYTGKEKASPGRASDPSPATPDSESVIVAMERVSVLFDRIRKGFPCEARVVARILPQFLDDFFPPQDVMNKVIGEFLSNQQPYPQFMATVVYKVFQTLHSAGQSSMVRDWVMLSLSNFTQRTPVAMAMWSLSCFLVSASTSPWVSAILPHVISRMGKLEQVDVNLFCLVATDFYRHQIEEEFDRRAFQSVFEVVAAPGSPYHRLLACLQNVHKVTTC

What was measured:
[1] = target: T1, GST-RasGRP1 GEF domain (1-470 amino acids) (UniProt Q9R1K8); experiment: pull-down
T1 sequence: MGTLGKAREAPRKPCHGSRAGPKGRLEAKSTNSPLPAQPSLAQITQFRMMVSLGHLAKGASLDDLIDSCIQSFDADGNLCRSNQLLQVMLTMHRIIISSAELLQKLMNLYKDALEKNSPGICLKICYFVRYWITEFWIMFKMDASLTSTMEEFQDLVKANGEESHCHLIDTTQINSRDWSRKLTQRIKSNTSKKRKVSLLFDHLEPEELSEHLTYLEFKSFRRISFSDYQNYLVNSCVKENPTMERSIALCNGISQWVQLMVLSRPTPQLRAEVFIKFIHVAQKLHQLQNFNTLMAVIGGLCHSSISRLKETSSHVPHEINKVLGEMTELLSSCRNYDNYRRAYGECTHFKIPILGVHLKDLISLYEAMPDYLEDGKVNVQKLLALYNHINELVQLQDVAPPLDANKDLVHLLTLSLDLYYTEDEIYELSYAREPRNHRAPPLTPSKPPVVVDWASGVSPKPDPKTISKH

[2] = target: T2, GST-FL-RasGRP1 (UniProt Q9R1K8); experiment: pull-down
T2 sequence: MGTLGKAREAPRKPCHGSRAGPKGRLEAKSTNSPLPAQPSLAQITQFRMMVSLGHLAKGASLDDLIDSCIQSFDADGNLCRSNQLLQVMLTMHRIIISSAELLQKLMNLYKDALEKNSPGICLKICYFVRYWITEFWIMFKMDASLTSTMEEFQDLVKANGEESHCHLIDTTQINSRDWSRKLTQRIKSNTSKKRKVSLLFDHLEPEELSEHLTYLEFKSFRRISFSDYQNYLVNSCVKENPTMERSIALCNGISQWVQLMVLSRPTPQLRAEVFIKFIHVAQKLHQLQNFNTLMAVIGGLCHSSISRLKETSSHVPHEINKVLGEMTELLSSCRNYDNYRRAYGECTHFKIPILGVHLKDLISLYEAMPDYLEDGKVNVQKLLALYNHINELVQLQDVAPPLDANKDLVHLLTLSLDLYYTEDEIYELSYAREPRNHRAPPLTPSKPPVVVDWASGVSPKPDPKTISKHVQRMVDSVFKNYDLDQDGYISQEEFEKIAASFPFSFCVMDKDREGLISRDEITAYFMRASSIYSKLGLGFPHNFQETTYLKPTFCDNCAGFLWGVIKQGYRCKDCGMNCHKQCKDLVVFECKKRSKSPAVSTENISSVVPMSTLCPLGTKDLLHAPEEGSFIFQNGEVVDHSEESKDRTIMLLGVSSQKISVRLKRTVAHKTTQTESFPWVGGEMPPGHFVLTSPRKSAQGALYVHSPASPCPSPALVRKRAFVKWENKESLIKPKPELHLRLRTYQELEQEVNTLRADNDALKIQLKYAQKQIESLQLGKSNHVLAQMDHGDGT

[3] = target: Rheb (endogenous, striatum) (mouse (endogenous in striatum)) (UniProt Q921J2); experiment: co-IP

Molecule: Rheb (recombinant) (from UniProt Q15382 1-184)
- binding [1]: binds
- binding [2]: binds

Molecule: huntingtin (endogenous, striatum) (from UniProt P42859)
- binding [3]: binds

B1: RasGRP1 (endogenous, striatum) (protein, UniProt Q9Z1S3 1-795)
chain: MGTLGKAREAPRKPCHGSRAGPKARLEAKSTNSPLPAQPSLAQITQFRMMVSLGHLAKGASLDDLIDSCIQSFDADGNLCRNNQLLQVMLTMHRIIISSAELLQKVMNLYKDALEKNSPGVCLKICYFVRYWITEFWIMFKMDASLTSTMEEFQDLVKANGEETHCHLIDTTQINSRDWSRKLTQRIKSNTSKKRKVSLLFDHLEPEELSEHLTYLEFKSFRRISFSDYQNYLVNSCVKENPTMERSIALCNGISQWVQLMVLSRPTPQLRAEVFIKFIHVAQKLHQLQNFNTLMAVIGGLCHSSISRLKETSSHVPHEINKVLGEMTELLSSCRNYDNYRRAYGECTHFKIPILGVHLKDLISLYEAMPDYLEDGKVNVQKLLALYNHINELVQLQEMAPPLDANKDLVHLLTLSLDLYYTEDEIYELSYAREPRNHRAPPLTPSKPPVVVDWASGVSPKPDPKTISKHVQRMVDSVFKNYDLDQDGYISQEEFEKIAASFPFSFCVMDKDREGLISRDEITAYFMRASSIYSKLGLGFPHNFQETTYLKPTFCDNCAGFLWGVIKQGYRCKDCGMNCHKQCKDLVVFECKKRIKSPAISTENISSVVPMSTLCPLGTKDLLHAPEEGSFIFQNGEIVDHSEESKDRTIMLLGVSSQKISVRLKRTVAHKSTQTESFPWVGGETTPGHFVLSSPRKSAQGALYVHSPASPCPSPALVRKRAFVKWENKESLIKPKPELHLRLRTYQELEQEINTLKADNDALKIQLKYAQKKIESLQLGKSNHVLAQMDHGDSA
- binding [3]: binds
